Results taken from patent US20240335406A1, “COMPOUNDED COMPOSITIONS AND METHODS FOR TREATING PAIN” (CMPD Licensing, LLC, priority 2016, published 2024).
Structures can show the parent of a compound that is named as a salt. The name of at least one read-out is uncertain.

Test: Forced degradation study (heat, acid) of Diclofenac Sodium/Lidocaine HCl Solution 1.47%/0.333%, percent recovery by UPLC-PDA
Type: physicochemical
[1] = H+ (0.1 N HCl), RT (22-25° C.), Day 2
[2] = H+ (0.1 N HCl), RT (22-25° C.), Day 6

## O=C(O)Cc1ccccc1Nc1c(Cl)cccc1Cl [Diclofenac Sodium]
H+ (0.1 N HCl), 40° C., Day 2
  Recovery of Diclofenac Sodium (%): 70.8%
H+ (0.1 N HCl), 40° C., Day 6
  Recovery of Diclofenac Sodium (%): 44.5%
H+ (0.1 N HCl), 40° C., Day 8
  Recovery of Diclofenac Sodium (%): 28.0%
H+ (0.1 N HCl), 65° C., Day 2
  Recovery of Diclofenac Sodium (%): 33.3%
H+ (0.1 N HCl), 65° C., Day 6
  Recovery of Diclofenac Sodium (%): 0.0%
H+ (0.1 N HCl), 65° C., Day 8
  Recovery of Diclofenac Sodium (%): 0.0%
[1]
  Recovery of Diclofenac Sodium (%): 86.3%
[2]
  Recovery of Diclofenac Sodium (%): 63.3%
H+ (0.1 N HCl), RT (22-25° C.), Day 8
  Recovery of Diclofenac Sodium (%): 57.0%
Untreated, Day 0
  Recovery of Diclofenac Sodium (%): 103%
Untreated, Day 2
  Recovery of Diclofenac Sodium (%): 104%
Untreated, Day 6
  Recovery of Diclofenac Sodium (%): 104%
Untreated, Day 8
  Recovery of Diclofenac Sodium (%): 104%
Heated 40° C., Day 2
  Recovery of Diclofenac Sodium (%): 106%
Heated 40° C., Day 6
  Recovery of Diclofenac Sodium (%): 103%
Heated 40° C., Day 8
  Recovery of Diclofenac Sodium (%): 105%
Heated 65° C., Day 2
  Recovery of Diclofenac Sodium (%): 106%
Heated 65° C., Day 6
  Recovery of Diclofenac Sodium (%): 101%
Heated 65° C., Day 8
  Recovery of Diclofenac Sodium (%): 103%
Heated 80° C., Day 2
  Recovery of Diclofenac Sodium (%): 99.6%
Heated 80° C., Day 6
  Recovery of Diclofenac Sodium (%): 95.6%
Heated 80° C., Day 8
  Recovery of Diclofenac Sodium (%): 89.4%

## CCN(CC)CC(=O)Nc1c(C)cccc1C [Lidocaine HCl, Lidocaine Hydrochloride]
H+ (0.1 N HCl), 40° C., Day 8
  Recovery of Lidocaine HCl (%): 96.4%
H+ (0.1 N HCl), 65° C., Day 2
  Recovery of Lidocaine HCl (%): 97.0%
H+ (0.1 N HCl), 65° C., Day 6
  Recovery of Lidocaine HCl (%): 102%
[1]
  Recovery of Lidocaine HCl (%): 98.5%
[2]
  Recovery of Lidocaine HCl (%): 96.5%
Untreated, Day 6
  Recovery of Lidocaine HCl (%): 102%
Untreated, Day 8
  Recovery of Lidocaine HCl (%): 104%
Concentrated H2SO4, 40° C., 18 Hours
  Recovery of Lidocaine HCl (%): 75.4%
Concentrated H2SO4, 65° C., 14 Hours
  Recovery of Lidocaine HCl (%): 86.2%
Concentrated H2SO4, 65° C., 18 Hours
  Recovery of Lidocaine HCl (%): 73.9%
Heated 40° C., Day 2
  Recovery of Lidocaine HCl (%): 100%
Heated 40° C., Day 6
  Recovery of Lidocaine HCl (%): 99.4%
Heated 40° C., Day 8
  Recovery of Lidocaine HCl (%): 104%
Heated 65° C., Day 2
  Recovery of Lidocaine HCl (%): 108%
Heated 65° C., Day 6
  Recovery of Lidocaine HCl (%): 94.5%
Heated 65° C., Day 8
  Recovery of Lidocaine HCl (%): 97.5%
Heated 80° C., Day 2
  Recovery of Lidocaine HCl (%): 96.0%
Heated 80° C., Day 6
  Recovery of Lidocaine HCl (%): 99.9%
Heated 80° C., Day 8
  Recovery of Lidocaine HCl (%): 75.6%
Sulfuric acid study, Control, 14 Hours
  Recovery of Lidocaine HCl (%): 102%
Sulfuric acid study, Control, 18 Hours
  Recovery of Lidocaine HCl (%): 102%
